Experimental data reported in US4113736A, “2-Phenyl-indole derivatives” (priority 1975, dated 1978).

Assays:
[1] = Static thermostability of stabilized polyvinyl chloride resin, GARDNER Scale comparator, 185° C.
Description: The stabilizing power of the substances of the invention was studied by determining the static thermostability of the following resin: […]
Polyvinyl chloride resin
Calcium-12-hydroxy-stearate
Stabilizer from 0.1 to 1
SL 2016 represents a solution of zinc-2-ethyl-hexanoate in a mixture of aromatic hydrocarbons boiling between 158° and 184° C.
The different ingredients were mixed and calendered in a mixer of which the cylinders were heated to 160° C.
The rigid sheets so obtained were then heated in a oven to a temperature of 185° or 210° C., until incipient carbonization.
A oven with a rotating drum, ventilated and equipped with a thermostat was used for this operation.
In the trials described hereunder the behaviour of the sheets containing one of the stabilizers to be tested was compared to that of sheets of the same formula but containing 2-phenyl-indole as stabilizer.
Comparison can be made by one of two methods, namely:
(1) The coloration of the sheets, of which samples were removed from the oven at fixed intervals, was compared to a standard scale of coloration, known as the GARDNER Scale, and expressed in terms of the reference figures of the GARDNER Scale.
Comparisons were made with a GARDNER Scale comparator which contains 18 filters of colored glass and which offers the possibility of observing simultaneously by transparency and in a limited field of view both the sheet and the reference filters.
It may happen that the color of the sheets is far removed from that of the GARDNER Scale, in which case comparison is difficult, if not impossible.
The following results were obtained at a temperature of 185° C., using the method described above: […]

[2] = Static thermostability of stabilized polyvinyl chloride resin, simplified method with GARDNER sub-scale, 210° C.

Compound	Coloration of the sheets ([1]; 0 minutes)	Coloration of the sheets ([1]; 6 minutes)	Coloration of the sheets ([1]; 12 minutes)	Coloration of the sheets ([1]; 18 minutes)	Coloration of the sheets ([1]; 24 minutes)	Coloration of the sheets ([1]; 30 minutes)	Coloration of the sheets ([1]; 36 minutes)	Coloration of the sheets ([1]; 42 minutes)	Coloration of the sheets ([1]; 48 minutes)	Coloration of the sheets ([1]; 54 minutes)	Coloration of the sheets ([1]; 60 minutes)	Coloration of the sheets ([2]; 0 minutes)	Coloration of the sheets ([2]; 3 minutes)	Coloration of the sheets ([2]; 6 minutes)	Coloration of the sheets ([2]; 9 minutes)	Coloration of the sheets ([2]; 12 minutes)	Coloration of the sheets ([2]; 15 minutes)	Coloration of the sheets ([2]; 18 minutes)
COc1cc(-c2cc3ccc(C)cc3[nH]2)ccc1O [Stabilizer 13]	1 GARDNER degrees	1 GARDNER degrees	2 GARDNER degrees	4 GARDNER degrees	6 GARDNER degrees	10 GARDNER degrees	10 GARDNER degrees	11 GARDNER degrees	15 GARDNER degrees	15 GARDNER degrees	burnt							
CCCCCCCCCCCCOc1ccc(-c2cc3ccc(C)cc3[nH]2)cc1 [Stabilizer 12]												1 GARDNER degrees	2 GARDNER degrees	2 GARDNER degrees	3 GARDNER degrees	11 GARDNER degrees	14 GARDNER degrees	burnt
COc1cc(-c2cc3cccc(C)c3[nH]2)ccc1O [Stabilizer 8]	1 GARDNER degrees	1 GARDNER degrees	2 GARDNER degrees	5 GARDNER degrees	10 GARDNER degrees	11 GARDNER degrees	11 GARDNER degrees	13 GARDNER degrees	13 GARDNER degrees	14 GARDNER degrees	17 GARDNER degrees							
COc1ccc(-c2cc3cccc(C)c3[nH]2)cc1C [Stabilizer 9]	1 GARDNER degrees	1 GARDNER degrees	3 GARDNER degrees	6 GARDNER degrees	10 GARDNER degrees	11 GARDNER degrees	11 GARDNER degrees	15 GARDNER degrees	15 GARDNER degrees	18 GARDNER degrees	burnt							
COc1cc(-c2cc3cc(C)ccc3[nH]2)ccc1O [Stabilizer 15]	1 GARDNER degrees	1 GARDNER degrees	2 GARDNER degrees	4 GARDNER degrees	8 GARDNER degrees	10 GARDNER degrees	11 GARDNER degrees	11 GARDNER degrees	11 GARDNER degrees	13 GARDNER degrees	18 GARDNER degrees							
COc1ccc(-c2cc3ccc(C)c(C)c3[nH]2)cc1 [Stabilizer 10]	2 GARDNER degrees	2 GARDNER degrees	4 GARDNER degrees	7 GARDNER degrees	11 GARDNER degrees	12 GARDNER degrees	13 GARDNER degrees	15 GARDNER degrees	16 GARDNER degrees	18 GARDNER degrees	burnt							
COc1ccc(-c2cc3ccc(OC)cc3[nH]2)cc1 [Stabilizer 17]	1 GARDNER degrees	1 GARDNER degrees	2 GARDNER degrees	4 GARDNER degrees	8 GARDNER degrees	10 GARDNER degrees	11 GARDNER degrees	12 GARDNER degrees	14 GARDNER degrees	17 GARDNER degrees	burnt							
COc1ccc(-c2cc3cc(C)ccc3[nH]2)cc1 [Stabilizer 4, 2-(4'-methoxy-phenyl)-5-methyl-indole]	1 GARDNER degrees	1 GARDNER degrees	2 GARDNER degrees	5 GARDNER degrees	8 GARDNER degrees	10 GARDNER degrees	11 GARDNER degrees	13 GARDNER degrees	14 GARDNER degrees	15 GARDNER degrees	burnt							
COc1ccc(-c2cc3cccc(C)c3[nH]2)c(OC)c1 [Stabilizer 11]	4 GARDNER degrees	4 GARDNER degrees	5 GARDNER degrees	9 GARDNER degrees	11 GARDNER degrees	15 GARDNER degrees	15 GARDNER degrees	16 GARDNER degrees	17 GARDNER degrees	burnt	burnt							
Oc1ccc2cc(-c3ccccc3)[nH]c2c1 [Stabilizer 2, 2-phenyl-6-hydroxy-indole]	1 GARDNER degrees	1 GARDNER degrees	2 GARDNER degrees	4 GARDNER degrees	9 GARDNER degrees	11 GARDNER degrees	12 GARDNER degrees	14 GARDNER degrees	14 GARDNER degrees	15 GARDNER degrees	19 GARDNER degrees							
COc1ccc(-c2cc3ccc(C)cc3[nH]2)cc1 [Stabilizer 6, 2-(4'-methoxy-phenyl)-6-methyl-indole]	1 GARDNER degrees	1 GARDNER degrees	2 GARDNER degrees	4 GARDNER degrees	7 GARDNER degrees	9 GARDNER degrees	11 GARDNER degrees	12 GARDNER degrees	13 GARDNER degrees	15 GARDNER degrees	burnt							
COc1ccc(-c2cc3cc(C)cc(C)c3[nH]2)cc1 [Stabilizer 7]	1 GARDNER degrees	1 GARDNER degrees	3 GARDNER degrees	6 GARDNER degrees	12 GARDNER degrees	14 GARDNER degrees	15 GARDNER degrees	15 GARDNER degrees	16 GARDNER degrees	18 GARDNER degrees	burnt							
